1 molecule from patent publication US20140134183A1 (CELL MEDICA SWITZERLAND, published 2014) can be followed below.

Amino acid sequences for entries named in this document (tags omitted). Residues count along the entry.
UniProt P01584, residues 117-269: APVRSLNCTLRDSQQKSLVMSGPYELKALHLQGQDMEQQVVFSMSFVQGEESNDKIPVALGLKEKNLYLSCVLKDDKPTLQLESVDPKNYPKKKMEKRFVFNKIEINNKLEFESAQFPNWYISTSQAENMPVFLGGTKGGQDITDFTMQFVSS

These are yes or no findings as the source states them, for the method shown. Some results given as binding are weak or reduced against the parent protein; the word gives no strength.

In assay [1] the target is T1, recombinant human IL-1 beta (human, UniProt P01584 117-269). The assay can be described thus: ELISA, cleared E. coli lysate on coated rhIL-1 beta. The procedure:
The resulting scFv mutants are expressed in 96-well format in 1 ml cultures in E. coli BL21 (DE3) (Novagen, USA, cat. no. 69450-3). […] Cells were lysed in lysis buffer (1 mM EDTA, 0.1 mg/ml lysozyme, PBS pH 7.2) in a 96-well format by freezing and subsequent thawing. Derived crude extracts were cleared by centrifugation. Supernatants were added to wells of a microtiterplate coated with 50 ng/ml of rhIL-1 beta (Peprotech) per well. After washing, bound scFvs are detected by ProteinL-HRP and binding to rhIL-1 beta quantified by BM Blue POD Substrate (Roche Applied Science).
(In general: In an ELISA, binding on a coated surface is turned into a signal by an enzyme label.)

Assay [2] has as its target T1, recombinant human IL-1 beta. Briefly: ELISA, cleared E. coli lysate on coated rhIL-1 beta (FIG. 6).

B1: DLX2686 (scFv)
scFv: MEIVMTQSPSTLSASVGDRVTITCQASQSISSWLSWYQQKPGKAPKLLIYKASTLASGVPSRFSGSGSGTEFTLTISSLQPDDFATYYCQNAGGGVSIAFGQGTKLTVLGGGGGSGGGGSGGGGSGGGGSEVQLVESGGGLVQPGGSLRLSCTVSGFSLSSYAMSWVRQAPGKGLEWIGIIYDSASTYYASWAKGRFTISKDTSKNTLYLQMNSLRAEDTAVYFCARERQIFSGDMDGWGQGTTVTVSS
Take B1: the binding result in assay [1] and in assay [2] was “binds” each time.
